Experimental data: US7538111B2, “Benzenesulphonamide derivatives, method for production and use thereof for treatment of pain” (Laboratoires Fournier S.A., priority 2003, dated 2009)

Protein sequences, listed by entry. Tags and fused reporters are not part of them.
UniProt P46663, whole entry: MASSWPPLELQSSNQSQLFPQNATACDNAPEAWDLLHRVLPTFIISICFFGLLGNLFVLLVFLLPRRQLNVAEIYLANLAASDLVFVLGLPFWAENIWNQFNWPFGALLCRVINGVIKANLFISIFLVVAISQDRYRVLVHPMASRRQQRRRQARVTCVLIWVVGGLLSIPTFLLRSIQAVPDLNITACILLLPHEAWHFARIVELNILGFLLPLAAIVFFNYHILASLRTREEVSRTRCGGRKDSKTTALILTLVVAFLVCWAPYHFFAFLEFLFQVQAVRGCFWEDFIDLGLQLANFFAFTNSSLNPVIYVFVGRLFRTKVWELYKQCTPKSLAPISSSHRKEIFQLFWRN

Target: B1 receptor of bradykinin (Homo sapiens, UniProt P46663)
Test: human umbilical vein contraction by des-Arg10-Kallidin, antagonism at the B1 receptor of bradykinin
Format: cell-based
Conditions: isolated human umbilical vein rings, agonist des-Arg10-Kallidin, pKB=-log KB from EC50 concentration ratio; tested form: difumarate

## COc1cc(Cl)c(S(=O)(=O)N(C)CCOCC(=O)N2CCC(CN3CCN(C)CC3)CC2)c(Cl)c1
  pKB: 8

Structures were worked out from names or drawings and are uncertain.
